According to article PMC5498468, “Exposure to the Epstein–Barr Viral Antigen Latent Membrane Protein 1 Induces Myelin-Reactive Antibodies In Vivo” (Frontiers in Immunology, 2017):
Results are given in words; binding and its absence hold for the method and conditions named.

Chains of the proteins cited; added tags and fusions are not shown.
UniProt P02687: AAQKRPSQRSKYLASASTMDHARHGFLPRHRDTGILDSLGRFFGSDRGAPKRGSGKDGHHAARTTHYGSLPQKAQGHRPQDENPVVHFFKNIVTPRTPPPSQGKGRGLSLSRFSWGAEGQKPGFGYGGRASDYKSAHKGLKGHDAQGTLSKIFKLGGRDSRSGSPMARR

biological target: T1, Bovine myelin basic protein (MBP) (bovine, UniProt P02687 1-169); test: ELISA + other: WB (methods) or immunoprecipitation (results); synthetic peptides with C-terminal Lys-biotin tested for binding of MBP and LMP1; one grade a pair for the two assays; both purified
T1 construct: Myelin basic protein, bovine

binding | Binder
no binding | GASDGSTDYGLLQLGGSRK (C-terminal Lys-biotin) [Synthesized biotinylated peptide P1, … (Bio)]
no binding | GDGSGTSFLLTGK (C-terminal Lys-biotin) [Synthesized biotinylated peptide P5, … (Bio)]
no binding | NTDGSTDYGLLQLK (C-terminal Lys-biotin) [Synthesized biotinylated peptide P4, … (Bio)]
